## Results of single-concentration screens

Values are the deposited “Percent Effect”, in %.
The record does not define 0% and 100%; most values in the screen are far below 50% and negative numbers occur (in some assays of this library far below -100).
Compounds were drawn at random from those tested, without regard to their results.

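Phenotypic screen: M. tuberculosis growth, glucose 7H9 medium, 3 days; the read-out is not stated. Tested at 500 µM. The record gives no direction; compounds that gave an IC50 in retests scored well above the rest, so higher reads as more growth inhibition. Of about 18,000 compounds tested this way, about 1,400 (7.9%) reached 50% or more in at least one test.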

Compound	percent effect
Cc1ccc(CCCC(=O)N(C)CC(N)=O)cc1	42.35
NCC1(O)Cc2ccccc2C1	-2.908
CC(=O)N(C)C1CCNCC1	-4.591
Cc1ccc(S(=O)(=O)NC(CN)C2CC2)c(F)c1 (centres unmarked)	51.57
CC(C)CN1CCC(O)CC1	7.293
CCc1noc(C)c1C(=O)NCCN(C)C	7.39
CC(=O)NCC1CNCCO1 (centres unmarked)	49.99
NS(=O)(=O)NCC1CCCCN1 (centres unmarked)	2.714
Cc1nc(C)c(CNc2ccc(C#N)nc2)s1	1.37
CC(C)CC(=O)NCc1cccnc1N1CCOCC1	-10.75
CCc1cccc(C)c1NC(=O)CN1CCNC(=O)C1	8.068
CNc1snc(C)c1C(=O)NCc1cccnc1	22.86
CC(C)[C@H](N)C(=O)N1CCOC2(CCOCC2)C1	2.558
Cc1cc(C)c(C(=O)NCCc2ccncc2)c(=O)[nH]1	3.064
Cc1cc(NC(=O)c2ccc(S(C)(=O)=O)cc2)no1	-3.758
Cc1n[nH]cc1CNCCN1CCCCCC1=O	5.25
NC(=O)CCCNC(=O)C1(c2ccccc2)CCC1	6.486
CS(=O)(=O)CCN(CC(O)c1ccccc1)C1CC1 (centres unmarked)	0.3122
N[C@H]1CN(C(=O)CCn2ccccc2=O)C[C@@H]1C1CC1	7.107
Cc1cc(C)n(C(C)C(=O)NCCS(=O)(=O)N(C)C)n1 (centres unmarked)	16.43
CC1CCCN1CCN (centres unmarked)	-14.04
NCc1ccc(CN2CCC(O)C2)cc1 (centres unmarked)	-5.612
CNc1ncc(C(=O)N[C@@H]2CCOC[C@H]2O)cn1	-1.697
COC(CN)Cc1ccccc1 (centres unmarked)	-6.57
CSc1ncc(C(=O)NC2CCN(C)C2)cn1 (centres unmarked)	19.87
O=C(NCc1csc(N2CCCC2)n1)C1CNCCO1 (centres unmarked)	41.68
Cc1cc(S(=O)(=O)N[C@@H]2COCC[C@H]2O)c(Cl)cc1F	4.698
CC(CCNC(=O)CCc1cccnc1)n1ccnc1 (centres unmarked)	11.17
COCCNC1(C(=O)NCC2CC2)CCCC1	5.742
Cc1nc2ncnn2c(N2CCNC(=O)CC2)c1C	-9.4
CC1(C)CN(CC2CCCCO2)CCO1 (centres unmarked)	-0.2892
CSCc1cccc(CNC(=O)c2ccon2)c1	49.35
CN1CCC(N2CCN(C(=O)c3cnc[nH]3)CC2)CC1	10.98
CC(C)(C#N)C(=O)Nc1ncccc1Cl	1.995
CCn1ccc(C(=O)NCc2ccco2)n1	48.51
COc1ccc(-n2ccnc2SCC(=O)N(C)C)cc1	15.98
CC(=O)N1Cc2ccccc2C[C@H]1C(=O)N1CCCC1	12.3
CN(C(=O)COCC(F)(F)F)C1CCS(=O)(=O)C1 (centres unmarked)	-0.4097
COc1ccc2c(c1)CN(C(=O)C1CCCOC1)CC2 (centres unmarked)	58.88
COC(=O)c1cccc(F)c1	4.977
COC(=O)NCC(=O)N(C)c1ccc2ccccc2c1	50.48
CCc1c(C)nn(CCNC(=O)[C@H](C)NC)c1C	1.617
Cc1n[nH]c(C)c1CN(C)Cc1ccncc1	-7.353
CCc1noc(C2(O)CCNC2)n1 (centres unmarked)	2.123
COCc1cc(N2CCCC(CO)C2)n2nccc2n1 (centres unmarked)	16.27
NC(=O)CC(N)C1CCOCC1 (centres unmarked)	7.027
CC(C)[C@H]1CN(S(=O)(=O)c2ccccc2F)C[C@@H]1N	38.93
CNC(=O)CN1CCN(Cc2cncn2C(C)C)CC1	2.54
CS(=O)(=O)CCNC(=O)c1ccc2c(c1)CCCC2	44.62
O=C(NC1CCN(CC2CCCO2)CC1)c1cnc[nH]1 (centres unmarked)	-3.161
CC(=O)N1CCN(Cc2cn3cccc(C)c3n2)CC1	9.405
CC(=O)Nc1c[nH]c(=O)[nH]c1=O	7.098
Cc1cc(CNC(=O)CN(C)Cc2cccnc2)n[nH]1	12.62
CC(C)CC(C)N(C)CC(=O)NC(N)=O (centres unmarked)	-6.861
CC(C)COc1cncc(NC2CCS(=O)(=O)C2)n1 (centres unmarked)	41.22
CSC(C)CNC(=O)[C@@H]1CCCN1 (some centres unmarked)	-0.4947
CN(C)S(=O)(=O)N1CC(=O)NCC1(C)C	2.835
CC(C)CCNC(=O)CCC(=O)NCCCOC(C)C	-2.964
C=C(C)CN(CC)C(=O)CN(C)CCN1CCOCC1	12.11
CCn1nc(C(C)C)cc1C(=O)NC(C)COC (centres unmarked)	21.1
COc1ccc(C(=O)N[C@@H]2CCOC[C@H]2O)cn1	3.326
O=c1[nH]c2cc(Cl)ccc2c(=O)n1CC1CCCO1 (centres unmarked)	-0.06838
CNCc1ccc2nsnc2c1	-0.5079
CN(C)c1cc(CN)c2ccccc2n1	92.9
CCn1cnnc1CNc1ncccc1F	12.47
COc1ccc(NCc2nc(=O)n(C)[nH]2)cc1	11.35
NC(=O)CC1CCN(C(=O)c2cncc(Br)c2)CC1	3.069
Cc1nn(-c2ccc(F)cc2)c(Cl)c1C(=O)N(C)C	26.73
NCC1CCN(C(=O)c2ccc(Cl)cc2O)C1 (centres unmarked)	14.5
Cc1onc(-c2ccccn2)c1C(=O)NC(C)C	-6.042

For reference, 8 entries once more:

{"compound": "CNc1snc(C)c1C(=O)NCc1cccnc1", "percent effect": 22.86}
{"compound": "CC(C)CCNC(=O)CCC(=O)NCCCOC(C)C", "percent effect": -2.964}
{"compound": "CC(C)COc1cncc(NC2CCS(=O)(=O)C2)n1", "stereo": "centres unmarked", "percent effect": 41.22}
{"compound": "CSc1ncc(C(=O)NC2CCN(C)C2)cn1", "stereo": "centres unmarked", "percent effect": 19.87}
{"compound": "Cc1cc(S(=O)(=O)N[C@@H]2COCC[C@H]2O)c(Cl)cc1F", "percent effect": 4.698}
{"compound": "Cc1cc(C)n(C(C)C(=O)NCCS(=O)(=O)N(C)C)n1", "stereo": "centres unmarked", "percent effect": 16.43}
{"compound": "CC1(C)CN(CC2CCCCO2)CCO1", "stereo": "centres unmarked", "percent effect": -0.2892}
{"compound": "O=C(NC1CCN(CC2CCCO2)CC1)c1cnc[nH]1", "stereo": "centres unmarked", "percent effect": -3.161}

From ChEMBL document CHEMBL3988442, “University of Dundee, Small-Polar-MMV Screening Library” (2021).